Results published in paper PMC5637259.
Positions count from the first letter of the chain named. Names and notes keep the numbering of the source. No constants are given. Whether binding was seen depends on the method and setting. In cells and extracts the contact can be indirect. Some results given as binding are weak or reduced against the parent protein; the word gives no strength. Sequences can lack the tags named with a protein. Blank lines part the entries; values can stand above or below the binder they belong to.

Assays:
Test in all cases: co-IP; 293T cells co-transfected, lysed 48 h later in RIPA buffer (50 mM Tris-HCl pH 7.4, 150 mM NaCl, 1% NP40, 10% glycerol); 1 mg extract with anti-Flag antibody and protein A/G agarose at 4 °C overnight; Western blot
[1] = target: T1, Flag-KHSRP-K87R (human) (UniProt Q92945)
T1 sequence: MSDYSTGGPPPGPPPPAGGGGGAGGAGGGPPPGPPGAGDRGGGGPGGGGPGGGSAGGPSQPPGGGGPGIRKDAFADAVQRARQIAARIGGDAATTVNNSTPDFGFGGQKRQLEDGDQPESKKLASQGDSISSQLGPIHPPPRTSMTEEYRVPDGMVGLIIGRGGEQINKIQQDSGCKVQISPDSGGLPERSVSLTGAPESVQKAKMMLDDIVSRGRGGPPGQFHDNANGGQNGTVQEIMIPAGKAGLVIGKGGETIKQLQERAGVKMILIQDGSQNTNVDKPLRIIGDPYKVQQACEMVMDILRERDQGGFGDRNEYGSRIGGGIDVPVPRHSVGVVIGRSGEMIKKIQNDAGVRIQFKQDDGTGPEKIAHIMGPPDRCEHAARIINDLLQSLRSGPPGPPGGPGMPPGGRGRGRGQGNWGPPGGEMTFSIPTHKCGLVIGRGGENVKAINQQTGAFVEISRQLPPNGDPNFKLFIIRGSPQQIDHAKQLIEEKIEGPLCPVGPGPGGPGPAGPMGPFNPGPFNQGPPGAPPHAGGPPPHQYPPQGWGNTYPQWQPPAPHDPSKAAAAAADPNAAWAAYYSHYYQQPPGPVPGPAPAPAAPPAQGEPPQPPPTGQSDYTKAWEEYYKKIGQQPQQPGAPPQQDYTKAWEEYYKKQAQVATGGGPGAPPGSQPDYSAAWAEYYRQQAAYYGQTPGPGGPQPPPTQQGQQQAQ

[2] = target: T2, Flag-KHSRP-WT (human) (UniProt Q92945)
T2 sequence: T1 sequence with R87K

[3] = target: T3, Flag-DGCR8 (UniProt Q8WYQ5)
T3 sequence: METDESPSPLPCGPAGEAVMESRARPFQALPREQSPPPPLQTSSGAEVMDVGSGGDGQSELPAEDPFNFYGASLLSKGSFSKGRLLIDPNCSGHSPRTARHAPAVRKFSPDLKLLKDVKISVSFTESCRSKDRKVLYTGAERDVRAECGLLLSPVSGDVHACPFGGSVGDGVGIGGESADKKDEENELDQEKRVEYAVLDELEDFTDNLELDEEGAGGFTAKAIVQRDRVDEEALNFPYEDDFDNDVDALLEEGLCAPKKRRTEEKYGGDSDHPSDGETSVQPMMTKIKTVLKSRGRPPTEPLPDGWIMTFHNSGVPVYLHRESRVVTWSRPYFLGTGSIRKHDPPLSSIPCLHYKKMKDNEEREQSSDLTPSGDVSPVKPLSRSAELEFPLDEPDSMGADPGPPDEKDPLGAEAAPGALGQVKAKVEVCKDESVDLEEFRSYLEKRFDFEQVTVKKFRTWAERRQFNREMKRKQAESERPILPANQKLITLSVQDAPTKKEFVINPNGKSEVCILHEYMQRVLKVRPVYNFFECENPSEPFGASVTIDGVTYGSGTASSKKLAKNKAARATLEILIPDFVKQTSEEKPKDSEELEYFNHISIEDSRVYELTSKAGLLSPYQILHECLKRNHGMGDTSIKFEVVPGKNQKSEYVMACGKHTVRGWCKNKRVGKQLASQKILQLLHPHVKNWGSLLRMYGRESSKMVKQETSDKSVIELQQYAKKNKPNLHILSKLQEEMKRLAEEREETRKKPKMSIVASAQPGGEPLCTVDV

- binding [1]: binds
- binding [2]: binds
B1: HA-Drosha (enzyme, UniProt Q9NRR4 1-1374)
chain: MMQGNTCHRMSFHPGRGCPRGRGGHGARPSAPSFRPQNLRLLHPQQPPVQYQYEPPSAPSTTFSNSPAPNFLPPRPDFVPFPPPMPPSAQGPLPPCPIRPPFPNHQMRHPFPVPPCFPPMPPPMPCPNNPPVPGAPPGQGTFPFMMPPPSMPHPPPPPVMPQQVNYQYPPGYSHHNFPPPSFNSFQNNPSSFLPSANNSSSPHFRHLPPYPLPKAPSERRSPERLKHYDDHRHRDHSHGRGERHRSLDRRERGRSPDRRRQDSRYRSDYDRGRTPSRHRSYERSRERERERHRHRDNRRSPSLERSYKKEYKRSGRSYGLSVVPEPAGCTPELPGEIIKNTDSWAPPLEIVNHRSPSREKKRARWEEEKDRWSDNQSSGKDKNYTSIKEKEPEETMPDKNEEEEEELLKPVWIRCTHSENYYSSDPMDQVGDSTVVGTSRLRDLYDKFEEELGSRQEKAKAARPPWEPPKTKLDEDLESSSESECESDEDSTCSSSSDSEVFDVIAEIKRKKAHPDRLHDELWYNDPGQMNDGPLCKCSAKARRTGIRHSIYPGEEAIKPCRPMTNNAGRLFHYRITVSPPTNFLTDRPTVIEYDDHEYIFEGFSMFAHAPLTNIPLCKVIRFNIDYTIHFIEEMMPENFCVKGLELFSLFLFRDILELYDWNLKGPLFEDSPPCCPRFHFMPRFVRFLPDGGKEVLSMHQILLYLLRCSKALVPEEEIANMLQWEELEWQKYAEECKGMIVTNPGTKPSSVRIDQLDREQFNPDVITFPIIVHFGIRPAQLSYAGDPQYQKLWKSYVKLRHLLANSPKVKQTDKQKLAQREEALQKIRQKNTMRREVTVELSSQGFWKTGIRSDVCQHAMMLPVLTHHIRYHQCLMHLDKLIGYTFQDRCLLQLAMTHPSHHLNFGMNPDHARNSLSNCGIRQPKYGDRKVHHMHMRKKGINTLINIMSRLGQDDPTPSRINHNERLEFLGDAVVEFLTSVHLYYLFPSLEEGGLATYRTAIVQNQHLAMLAKKLELDRFMLYAHGPDLCRESDLRHAMANCFEALIGAVYLEGSLEEAKQLFGRLLFNDPDLREVWLNYPLHPLQLQEPNTDRQLIETSPVLQKLTEFEEAIGVIFTHVRLLARAFTLRTVGFNHLTLGHNQRMEFLGDSIMQLVATEYLFIHFPDHHEGHLTLLRSSLVNNRTQAKVAEELGMQEYAITNDKTKRPVALRTKTLADLLESFIAALYIDKDLEYVHTFMNVCFFPRLKEFILNQDWNDPKSQLQQCCLTLRTEGKEPDIPLYKTLQTVGPSHARTYTVAVYFKGERIGCGKGPSIQQAEMGAAMDALEKYNFPQMAHQKRFIERKYRQELKEMRWEREHQEREPDETEDIKK

- binding [3]: binds
B2: HA-KHSRP-WT (protein, UniProt Q92945 1-711)
chain: T1 sequence with R87K

- binding [3]: binds
B3: HA-KHSRP-K87R (protein, UniProt Q92945 1-711)
chain: T1 sequence
